Some of the results follow. Single values are uncertain here, since repeats match poorly.
What follows are molecules tested against HuR (ELAVL1) - TNFalpha ARE RNA complex (UniProt Q15717) (assay: AlphaScreen HuR-RNA complex signal Z-score relative to positive (Bi-TNF, DMSO) controls (Z-score (SD units of positive control)); higher = more complex signal). Conditions: screen stage: primary screen; compound concentration: 25 nM.

By UniProt entry, the sequences of proteins in these tests, tags left out.
UniProt Q15717, whole entry: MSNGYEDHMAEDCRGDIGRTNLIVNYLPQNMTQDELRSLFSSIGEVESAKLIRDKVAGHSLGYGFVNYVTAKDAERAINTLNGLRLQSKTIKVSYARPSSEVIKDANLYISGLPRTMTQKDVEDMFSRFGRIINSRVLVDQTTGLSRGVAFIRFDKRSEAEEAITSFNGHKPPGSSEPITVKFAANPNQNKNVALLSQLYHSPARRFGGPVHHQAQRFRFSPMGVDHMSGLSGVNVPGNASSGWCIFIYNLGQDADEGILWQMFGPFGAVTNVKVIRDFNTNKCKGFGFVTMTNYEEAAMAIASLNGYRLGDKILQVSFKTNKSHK

Structure (SMILES) | AlphaScreen HuR-RNA complex signal Z-score
COc1ccc2c(c1)O[C@H]1c3ccc(OC)cc3OC[C@@H]21 | 3.4
CC(C)NCC(O)c1cc(O)cc(O)c1 (stereo unspecified) | 0.346
O=C(O)CN(CCN(CC(=O)O)CC(=O)O)CCN(CC(=O)O)CC(=O)O | -0.0536
COc1ccc(-c2cc(=O)c3c(OC)c(OC)c(OC)cc3o2)cc1OC | 2.37
O=C(/C=C/C=C/c1ccc2c(c1)OCO2)N1CCCCC1 | 0.798
CCC(=O)OCC(=O)[C@@]1(OC(=O)CC)[C@@H](C)C[C@H]2[C@@H]3CCC4=CC(=O)C=C[C@]4(C)[C@@]3(Cl)[C@@H](O)C[C@@]21C | 0.389
COc1ccc(-c2cc(=O)c3c(O)cc(OC)cc3o2)cc1 | -0.544
CC(C)=CCC/C(C)=C/CC/C(C)=C/CC/C(C)=C/CO | 0.771
CCN(CC)Cc1cc(Nc2ccnc3cc(Cl)ccc23)ccc1O | 0.315
OC[C@H]1O[C@@](CO)(O[C@H]2O[C@H](CO)[C@@H](O)[C@H](O)[C@H]2O)[C@@H](O[C@H]2O[C@H](CO)[C@@H](O)[C@H](O)[C@H]2O)[C@@H]1O | 1.7
O=C1CCC(N2C(=O)c3ccccc3C2=O)C(=O)N1 (stereo unspecified) | 1.08
CC1(C)C[C@@H]2C(=O)CC[C@H]3O[C@]3(C)CC[C@H]21 | 1.61
CCN(CC)CCNC(=O)COc1ccc(OC)cc1 | 0.132
CC(=O)OCC1=C(C(=O)O)N2C(=O)[C@@H](NC(=O)Cc3cccs3)[C@H]2SC1 | -3.77
CC(C)(C)NCC(O)c1ccc(O)c(CO)c1 (racemic) | 1.03
CCOc1ccc(NC(=O)CC(C)O)cc1 (stereo unspecified) | -1.2
COc1c(O)cc2oc3cc(O)c(CC=C(C)C)c(O)c3c(=O)c2c1CC=C(C)C [alpha-MANGOSTIN] | -0.329
C=CCCCCCCCCC(=O)O | -3.65
COC(=O)C[C@H]1C(C)(C)[C@@H](OC(C)=O)[C@@H]2CC3C4CC(=O)O[C@@H](c5ccoc5)[C@]4(C)CCC3[C@@]1(C)C2=O (stereo partly specified) | 0.203
CC1(C)S[C@@H]2[C@H](NC(=O)Cc3ccccc3)C(=O)N2[C@H]1C(=O)O | 7.45
CCC(C)n1ncn(-c2ccc(N3CCN(c4ccc(OCC5COC(Cn6cncn6)(c6ccc(Cl)cc6Cl)O5)cc4)CC3)cc2)c1=O (stereo unspecified) | 1.91
COc1ccc(/C=C/C(=O)c2cc(O)ccc2O)cc1 | -0.67
Cc1cccc(Nc2ccccc2C(=O)O)c1C | 0.665
C=CCSCC=C | 1.33
CC(N)C(=O)OC(C)(C)Cc1ccc(Cl)cc1 (stereo unspecified) | 1.26
O=C1c2ccccc2C(=O)C1(O)C1(O)C(=O)c2ccccc2C1=O | -2.01

Structure (SMILES) | AlphaScreen HuR-RNA complex signal Z-score
CC[n+]1c(-c2ccccc2)c2cc(N)ccc2c2ccc(N)cc21 | 4.2
O=C1OC(CN2CCOCC2)CN1/N=C/c1ccc([N+](=O)[O-])o1 (stereo unspecified) | -0.91
C[n+]1ccccc1C=NO | 2.73
CNCCCN1c2ccccc2CCc2ccccc21 | -2.63
O=C(O)[C@]1(O)C[C@@H](O)[C@@H](O)[C@H](O)C1 | 0.0865
COC(=O)C1=C(C)NC(C)=C(C(=O)OCC(C)C)C1c1ccccc1[N+](=O)[O-] (stereo unspecified) | -2.02
O=c1cc(-c2ccc(O)cc2)oc2cc(O)ccc12 | -0.314
COC(=O)C1=C(C)NC(C)=C(C(=O)OCCN(C)Cc2ccccc2)C1c1cccc([N+](=O)[O-])c1 (stereo unspecified) | 1.03
CC(C)=CCc1c2c(c3occ(-c4ccc(O)cc4)c(=O)c3c1O)C=CC(C)(C)O2 | -2.83
Cc1ccccc1C(OCCN(C)C)c1ccccc1 (stereo unspecified) | 3.6
CC(=O)OC(C)(C)[C@@H]1Cc2cc3ccc(=O)oc3cc2O1 | 0.808
O=C1CCc2ccc(OCCCCN3CCN(c4cccc(Cl)c4Cl)CC3)cc2N1 | -0.222
CN(C)CCOC(c1ccc(Cl)cc1)c1ccccn1 (stereo unspecified) | 0.312
NC(=O)NC1NC(=O)NC1=O (stereo unspecified) | -0.673
C[C@@H]1CC[C@@]23CCC4(C)[C@@](C=CC5[C@@]6(C)CCC(=O)C(C)(C)C6CC[C@]54C)(OC2=O)C3[C@H]1C (stereo partly specified) | 1.59
COc1c2ccoc2cc2oc(=O)ccc12 | 2.15
CCN(CC)CCOc1ccc(C(=C(Cl)c2ccccc2)c2ccccc2)cc1 | -6.23
CC1(C)CC[C@]2(C(=O)O)CC[C@]3(C)C(=CCC4[C@@]5(C)CC[C@@H](O)C(C)(C)C5CC[C@]43C)C2C1 (stereo partly specified) | 1.95
CCCCNc1ccc(C(=O)OCCN(C)C)cc1 | 7.51
CN1CCOC(c2ccccc2)c2ccccc2C1 (stereo unspecified) | 0.964
N=C(N)NCCCCN | 0.988
CN1CCC(=C2c3ccccc3CCc3sccc32)CC1 | -0.0929
Cc1cnc(C(=O)NCCc2ccc(S(=O)(=O)NC(=O)NC3CCCCC3)cc2)cn1 | 1.8
C=C1C2CC[C@@]3(C)[C@H](c4ccoc4)OC(=O)C[C@]13O[C@H]1CC(=O)C(C)(C)[C@H](C(O)C(=O)OC)[C@@]21C (stereo partly specified) | 0.727
CCc1ccc2c(O)c3c(cc2c1C(=O)OC)C(=O)c1c(O)ccc(O)c1C3=O | -4.97
CC(=O)O[C@H]1C[C@@H](OC(C)=O)C(C)(C)[C@@H]2C[C@@H](OC(C)=O)[C@@]3(C)C4=CC(=O)O[C@@H](c5ccoc5)[C@]4(C)CC[C@@H]3[C@@]12C | -0.0498

Structure (SMILES) | AlphaScreen HuR-RNA complex signal Z-score
CC(O)(P(=O)(O)O)P(=O)(O)O | 1.49
CC(C)Cc1ccc(C(C)C(=O)O)cc1 (stereo unspecified) | -2.4
COC1=CC(=O)C=C(OC)C1=O | -4.9
COc1ccc(C(=O)c2ccccc2O)c(O)c1 | -3.1
COCCc1ccc(OCC(O)CNC(C)C)cc1 (stereo unspecified) | 2.56
CC1=C(C/C=C(\C)CCC[C@H](C)CCC[C@H](C)CCCC(C)C)C(=O)c2ccccc2C1=O | 0.649
O=c1c(O)c(-c2ccc(O)c(O)c2)oc2cc(O)cc(O)c12 | -1.42
O=C(O)C1(C(=O)O)CCC1.[NH2-].[NH2-].[Pt+2] | 0.45
CN[C@@H]1[C@H](O[C@H]2[C@H](O[C@H]3[C@H](O)[C@@H](O)[C@H](NC(=N)N)[C@@H](O)[C@@H]3NC(=N)N)O[C@@H](C)[C@]2(O)CO)O[C@@H](CO)[C@H](O)[C@H]1O | -5.94
NCc1ccc(S(N)(=O)=O)cc1 | 0.301
COc1cc2oc3cc(OC)c(OC)c(CC=C(C)C)c3c(=O)c2c(OC)c1CC=C(C)C | 0.435
CCc1oc2ccccc2c1C(=O)c1cc(Br)c(O)c(Br)c1 | 1.76
CC/C(=C(\c1ccccc1)c1ccc(OCCN(C)C)cc1)c1ccccc1 | 4.48
C#C[C@]1(O)CC[C@H]2[C@@H]3CCC4=C(CCC(=O)C4)[C@H]3CC[C@@]21C | 5.04
COc1cc(OC)c(-c2c(OC)cc(OC)cc2OC)c(OC)c1 | 2.36
CC(C)(C)NCC(O)c1cc(O)cc(O)c1 (stereo unspecified) | 6.83
COc1ccc2c(c1)O[C@@H]1COc3cc(OC)c(OC)cc3[C@@H]1C2=O | -0.584
CC[N+](CC)(CC)CCOc1cccc(OCC[N+](CC)(CC)CC)c1OCC[N+](CC)(CC)CC | -2.25
CCOC(=O)[N-]c1c[n+](N2CCOCC2)no1 | -0.274
CCOc1ccc(NC(C)=O)cc1 | -0.905
CN1CCC[C@@H]1CCO[C@](C)(c1ccccc1)c1ccc(Cl)cc1 | -5.43
O=C(O)c1cccnc1C(=O)O | 1.99
O=C(O)c1ccccc1 | 0.457
C=C[C@@]1(C)CC(=O)[C@@]2(O)[C@](C)(O1)[C@@H](O)[C@@H](O)C1C(C)(C)CC[C@H](O)[C@@]12C (stereo partly specified) | 1.21
COc1ccc(C(C)=O)c(OC)c1 | 1.81
CC(NCCc1ccc(O)cc1)C(O)c1ccc(O)cc1 (stereo unspecified) | 0.519

In the list so far, 2 contain a thiophene ring, fused or not:
Structure (SMILES) | AlphaScreen HuR-RNA complex signal Z-score
CC(=O)OCC1=C(C(=O)O)N2C(=O)[C@@H](NC(=O)Cc3cccs3)[C@H]2SC1 | -3.77
CN1CCC(=C2c3ccccc3CCc3sccc32)CC1 | -0.0929

The listing continues.

Structure (SMILES) | AlphaScreen HuR-RNA complex signal Z-score
CCC1(C)CC(=O)NC1=O (stereo unspecified) | 0.565
NC[C@@H]1O[C@H](O[C@H]2[C@@H](O)[C@H](O[C@@H]3[C@@H](O)[C@H](N)C[C@H](N)[C@H]3O[C@H]3O[C@H](CN)[C@@H](O)[C@H](O)[C@H]3N)O[C@@H]2CO)[C@H](N)[C@@H](O)[C@@H]1O | 4.89
CCCCS(=N)(=O)CCC(N)C(=O)O (stereo unspecified) | 2.03
CC(=O)O[C@@H]1CC2C(C)(C)[C@H](O)CC[C@]2(C)C2CC[C@@]3(C)[C@H](c4ccoc4)OC(=O)C4OC43[C@@]21C (stereo partly drawn) [alpha-DIHYDROGEDUNOL] | 2.26
CC(=O)Oc1ccc(C(c2ccc(OC(C)=O)cc2)c2ccccn2)cc1 | 0.315
CC1(C)CC2C1CC[C@]1(CBr)CCC3C(CC(=O)O)C(=O)O[C@@]32C1 (stereo partly specified) [BROMO-3-HYDROXY-4-(SUCCIN-2-YL)-CARYOLANE gamma-LACTONE] | 0.879
CCCc1nn(C)c2c(=O)[nH]c(-c3cc(S(=O)(=O)N4CCN(C)CC4)ccc3OCC)nc12 | 1.4
O=C1CC[C@]23/C=C/C(=O)NCCCCNCCCNC(=O)/C=C/c4ccc(c2c4)O[C@@H]3C1 | 1.77
O=C(O)c1ccccc1Nc1cccc(C(F)(F)F)c1 | 0.622
CC(=O)Nc1ccc(S(=O)(=O)c2ccc(NC(C)=O)cc2)cc1 | 0.0324
O=C1O[C@H]([C@@H](O)CO)C(O)=C1O | 0.39
Clc1ccc(C(c2ccccc2Cl)C(Cl)Cl)cc1 (stereo unspecified) | 0.315
C[C@@H]1CC[C@@]2(OC1)O[C@H]1C[C@H]3[C@@H]4CC=C5C[C@@H](O)CC[C@]5(C)[C@H]4CC[C@]3(C)[C@H]1[C@@H]2C | 1.08
CC(=O)Oc1cc(C)c2c(c1C=O)Oc1c(c(C)c(OC(C)=O)c3c1C(OC(C)=O)OC3=O)OC2=O (stereo unspecified) | -0.324
Nc1ccc(C(=O)O)c(O)c1 | 0.112
Cc1c(S(=O)(=O)O)oc2c1C(=O)C(=O)c1c-2ccc2c1CCCC2(C)C | 1.59
NCCCS(=O)(=O)O | 1.66
Nc1nc(/C(=C/CC(=O)O)C(=O)N[C@@H]2C(=O)N3C(C(=O)O)=CCS[C@H]23)cs1 | 2.58
O=C(/C=C/c1ccccc1)c1ccc(O)cc1 | 0.656
CN(C)CCOC(=O)C(c1ccccc1)C1(O)CCCC1 (stereo unspecified) | -3.29
Nc1ccc(/N=N/c2ccccc2)c(N)n1 | -2.12
CCN(CC)CCNC(=O)c1cc(Br)c(N)cc1OC | 1.01
CCCCC(=O)N(Cc1ccc(-c2ccccc2-c2nnn[nH]2)cc1)[C@H](C(=O)O)C(C)C | 2.89

Some values from above.
Under AlphaScreen HuR-RNA complex signal Z-score, O=C(O)CN(CCN(CC(=O)O)CC(=O)O)CCN(CC(=O)O)CC(=O)O has the entry -0.0536
Under AlphaScreen HuR-RNA complex signal Z-score, CC(=O)Oc1cc(C)c2c(c1C=O)Oc1c(c(C)c(OC(C)=O)c3c1C(OC(C)=O)OC3=O)OC2=O (stereo unspecified) has the entry -0.324
Under AlphaScreen HuR-RNA complex signal Z-score, CC(=O)OC(C)(C)[C@@H]1Cc2cc3ccc(=O)oc3cc2O1 has the entry 0.808

From the supplement of paper PMC3741180, “A Novel High Throughput Biochemical Assay to Evaluate the HuR Protein-RNA Complex Formation” (PLoS ONE, 2013)
